Measurements reported in PubChem BioAssay AID1224830 (NIAID, 2016).
Aim: 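Genes whose knock-down alters the TNF-alpha reporter response to LPS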 (primary screen). Cells: human THP-1 monocytic leukaemia cells, TNF dual-luciferase reporter clone, PMA-differentiated to macrophage-like cells. Reagents: siRNA pool against human genes, 50 nM. Timing: LPS for 4 h, given about 3 days after siRNA transfection. Challenge: bacterial LPS (TLR4 ligand), 10 ng/ml. Detection: 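Ratio of firefly to renilla light, scaled to the plate median and expressed as a robust z-score per replicate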. Scale: TNF reporter robust z-score: higher = stronger TNF reporter response to LPS. Rule for the call: 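Each well counts as active if its z-score is over 2.8 or under -1.5; controls are left without a call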.
The deposit covers about 18,000 reagents; this is a part drawn at random. About 2,900 of them (16%) were called active. 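Calls are made per well; low scores hint the gene aids the LPS response, high scores that it dampens it.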 A number with no mark means an inactive call. Repeated entries: four replicate wells of each siRNA pool. Reagent sequences are not shown.

gene | TNF reporter robust z-score
HDLBP (GeneID 3069) | 1.09
HDLBP (GeneID 3069) | 2.8 (active)
HDLBP (GeneID 3069) | 0.39
HDLBP (GeneID 3069) | -0.16
RANBP1 (GeneID 5902) | 0.51
RANBP1 (GeneID 5902) | -0.52
RANBP1 (GeneID 5902) | -0.01
RANBP1 (GeneID 5902) | 0.3
RNF167 (GeneID 26001) | -0.96
RNF167 (GeneID 26001) | -1.47
RNF167 (GeneID 26001) | -1.4
RNF167 (GeneID 26001) | -0.54
CDH2 (GeneID 1000) | 0.43
CDH2 (GeneID 1000) | -0.17
CDH2 (GeneID 1000) | 0.65
CDH2 (GeneID 1000) | -0.03
KCNQ4 (GeneID 9132) | 1.48
KCNQ4 (GeneID 9132) | 0.3
KCNQ4 (GeneID 9132) | 0.9
KCNQ4 (GeneID 9132) | -0.19
MFSD6L (GeneID 162387) | 0.88
MFSD6L (GeneID 162387) | 1.23
MFSD6L (GeneID 162387) | 0.13
MFSD6L (GeneID 162387) | -0.05
PLCZ1 (GeneID 89869) | 0.46
PLCZ1 (GeneID 89869) | 0.74
PLCZ1 (GeneID 89869) | -0.19
PLCZ1 (GeneID 89869) | -0.61
SMIM11 (GeneID 54065) | 2.46
SMIM11 (GeneID 54065) | 3.58 (active)
SMIM11 (GeneID 54065) | -0.34
SMIM11 (GeneID 54065) | -0.51
GLRX5 (GeneID 51218) | -0.91
GLRX5 (GeneID 51218) | -0.78
GLRX5 (GeneID 51218) | -0.4
GLRX5 (GeneID 51218) | -1.41
IGFBP4 (GeneID 3487) | 0.02
IGFBP4 (GeneID 3487) | 0.03
IGFBP4 (GeneID 3487) | 0.14
IGFBP4 (GeneID 3487) | -0.35
WDSUB1 (GeneID 151525) | 0.39
WDSUB1 (GeneID 151525) | 0.77
WDSUB1 (GeneID 151525) | 0.85
WDSUB1 (GeneID 151525) | 3.31 (active)
C5orf46 (GeneID 389336) | -0.1
C5orf46 (GeneID 389336) | 0.95
C5orf46 (GeneID 389336) | 1.08
C5orf46 (GeneID 389336) | 1.3
RPL7 (GeneID 6129) | 0.27
RPL7 (GeneID 6129) | 1.24
RPL7 (GeneID 6129) | 0.39
RPL7 (GeneID 6129) | 0.09
EXOG (GeneID 9941) | -0.72
EXOG (GeneID 9941) | 0.94
EXOG (GeneID 9941) | -0.05
EXOG (GeneID 9941) | 0.01
PIM3 (GeneID 415116) | -0.35
PIM3 (GeneID 415116) | 0.13
PIM3 (GeneID 415116) | -0.56
PIM3 (GeneID 415116) | 0.35
TPST2 (GeneID 8459) | -0.29
TPST2 (GeneID 8459) | -0.15
TPST2 (GeneID 8459) | 0.62
TPST2 (GeneID 8459) | 1.07
LZTFL1 (GeneID 54585) | 0.85
LZTFL1 (GeneID 54585) | 1.35
LZTFL1 (GeneID 54585) | 1.28
LZTFL1 (GeneID 54585) | 2.13
NRXN3 (GeneID 9369) | -1.37
NRXN3 (GeneID 9369) | 0.02
NRXN3 (GeneID 9369) | 0.07
NRXN3 (GeneID 9369) | -0.22
GPR19 (GeneID 2842) | -1.35
GPR19 (GeneID 2842) | -1.17
GPR19 (GeneID 2842) | -0.47
GPR19 (GeneID 2842) | -1.24
CCDC148 (GeneID 130940) | 1.05
CCDC148 (GeneID 130940) | 3.75 (active)
CCDC148 (GeneID 130940) | 0.66
CCDC148 (GeneID 130940) | 0.69
ECT2L (GeneID 345930) | -0.22
ECT2L (GeneID 345930) | 0.2
ECT2L (GeneID 345930) | -0.25
ECT2L (GeneID 345930) | -1.38
NTN3 (GeneID 4917) | -0.66
NTN3 (GeneID 4917) | -0.37
NTN3 (GeneID 4917) | 0.43
NTN3 (GeneID 4917) | -0.48
MOXD1 (GeneID 26002) | -0.3
MOXD1 (GeneID 26002) | 0.01
MOXD1 (GeneID 26002) | -0.22
MOXD1 (GeneID 26002) | 1.11
ALKBH4 (GeneID 54784) | 0.92
ALKBH4 (GeneID 54784) | 0.96
ALKBH4 (GeneID 54784) | -0.07
ALKBH4 (GeneID 54784) | 0.74
MEX3A (GeneID 92312) | 0.89
MEX3A (GeneID 92312) | -1.6 (active)
MEX3A (GeneID 92312) | -1.52 (active)
MEX3A (GeneID 92312) | -1.85 (active)
ARFGAP2 (GeneID 84364) | -0.33
ARFGAP2 (GeneID 84364) | -0.13
ARFGAP2 (GeneID 84364) | 0.04
ARFGAP2 (GeneID 84364) | 0.25
SLIT1 (GeneID 6585) | 1.52
SLIT1 (GeneID 6585) | -0.17
SLIT1 (GeneID 6585) | -0.08
SLIT1 (GeneID 6585) | -0.5
GTPBP4 (GeneID 23560) | -0.12
GTPBP4 (GeneID 23560) | -0.55
GTPBP4 (GeneID 23560) | -0.35
GTPBP4 (GeneID 23560) | -0.22

Called active (from the list above):
gene | TNF reporter robust z-score
HDLBP (GeneID 3069) | 2.8 (active)
SMIM11 (GeneID 54065) | 3.58 (active)
WDSUB1 (GeneID 151525) | 3.31 (active)
CCDC148 (GeneID 130940) | 3.75 (active)
MEX3A (GeneID 92312) | -1.6 (active)
MEX3A (GeneID 92312) | -1.52 (active)
MEX3A (GeneID 92312) | -1.85 (active)
